Assay results: article PMC10527334
These are yes or no findings as the source states them, for the method shown. Binding seen in cells or lysates may run through a third protein. Some entries that bind do so weakly or less than the wild type. Tags and fused reporters may be left off the sequences shown.

Target: T1, Bcl-2 antagonist killer 1 (BAK) (human (endogenous in NPC cells)), Q16611
T1 chain: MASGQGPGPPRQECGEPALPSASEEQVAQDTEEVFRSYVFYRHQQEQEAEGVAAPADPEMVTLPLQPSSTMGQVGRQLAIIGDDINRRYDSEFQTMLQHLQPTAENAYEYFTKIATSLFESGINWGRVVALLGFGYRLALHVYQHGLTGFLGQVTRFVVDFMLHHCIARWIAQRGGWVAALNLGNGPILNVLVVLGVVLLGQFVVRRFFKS
Assay: cross-linking; NPC cells treated with NGN or transfected with let-7g mimic; 5 mM bismaleimidohexane (BMH)-treated cells fractionated into mitochondrial and ER/microsomal fractions, 10% SDS-PAGE, probed with specific antibodies
Conditions: remark: other sources report otherwise

B1: Bcl-2 antagonist killer 1 (BAK), Q16611 1-211 (protein)
chain: MASGQGPGPPRQECGEPALPSASEEQVAQDTEEVFRSYVFYRHQQEQEAEGVAAPADPEMVTLPLQPSSTMGQVGRQLAIIGDDINRRYDSEFQTMLQHLQPTAENAYEYFTKIATSLFESGINWGRVVALLGFGYRLALHVYQHGLTGFLGQVTRFVVDFMLHHCIARWIAQRGGWVAALNLGNGPILNVLVVLGVVLLGQFVVRRFFKS
  binding: binds
